# Assay results taken from patent publication US12195506B2, “Immunotherapy with A*01 restricted peptides and combination of peptides against cancers and related methods” (Immatics Biotechnologies GmbH, priority 2018, dated 2025).
# For some assays here: Expression values are those of the mRNA of the gene that encodes the peptide; a gene is named only where it was looked up.
# Key:
# [1] = test system: HLA molecules of primary tumors and normal tissue samples; assay: Identification and relative quantitation of HLA ligands by LC-MS (peptide presentation on tumor versus normal tissue); design: species or system human; details: cancer entities on which the peptide was found presented (HLA ligands, LC-MS); abbreviations as in title of Table 8
# source genes (mRNA) = assay: Expression profiling of genes encoding the peptides (RNAseq, tumor versus normal tissues); design: species or system human; details: source gene of the peptide; for Gene Expression in tumor samples: Highly over-expressed (++): value = tumor type in which the gene is highly over-expressed compared to a panel of normal tissues; for Gene Expression in tumor samples: over-expressed (+): value = tumor type in which the gene is over-expressed compared to a panel of normal tissues
Substance,Peptide Presentation on cancer entities [1],Gene Expression in tumor samples: Highly over-expressed (++) (source genes (mRNA)),Gene Expression in tumor samples: over-expressed (+) (source genes (mRNA)),Gene Expression in tumor samples: very highly over-expressed (+++) (source genes (mRNA); value = tumor type in which the gene is very highly over-expressed compared to a panel of normal tissues)
38: peptide found in F5 (gene looked up) (KSWSQSSSLMY; listed as Homo sapiens) [compound 38],"HCC, HNSCC, MEL",HCC,CCC,–
39: peptide found in F5 (gene looked up) (WSQSSSLMY; listed as Homo sapiens) [compound 39],"AML, GBC, GC, HCC, NSCLCsquam",HCC,CCC,–
41: peptide found in NAT1 (gene looked up) (HSDLLEDSKY; listed as Homo sapiens) [compound 41],"AML, BRCA, CLL, GBC, GC, HCC, HNSCC, MEL, NHL, NSCLCadeno, NSCLCother, NSCLCsquam, OC, OSCAR, PACA, PRCA, SCLC, UBC, UEC",BRCA,–,–
42: peptide found in PTPRZ1 (gene looked up) (ASDVDTLLK; listed as Homo sapiens) [compound 42],GBM,GBM,–,–
44: peptide found in PTPRZ1 (gene looked up) (IPSFNEMVY; listed as Homo sapiens) [compound 44],"GBM, NSCLCadeno, NSCLCsquam",GBM,–,–
53: peptide found in LOXL4 (gene looked up) (YLEDRPLSQLY; listed as Homo sapiens) [compound 53],"MEL, OC",MEL,–,–
57: peptide found in CYP1A1 (gene looked up) (ASDPASSTSCY; listed as Homo sapiens) [compound 57],HCC,NSCLCother,–,–
63: peptide found in ROS1 (gene looked up) (TSEISQNALMY; listed as Homo sapiens) [compound 63],"NSCLCadeno, NSCLCother, NSCLCsquam",NSCLCadeno,"NSCLCother, NSCLCsquam",–
64: peptide found in ROS1 (gene looked up) (TSEISQNALMYY; listed as Homo sapiens) [compound 64],NSCLCadeno,NSCLCadeno,"NSCLCother, NSCLCsquam",–
68: peptide found in FERMT1 (gene looked up) (QSLPEFGLTY; listed as Homo sapiens) [compound 68],"CCC, OSCAR",CRC,–,–
69: peptide found in FERMT1 (gene looked up) (QSLPEFGLTYY; listed as Homo sapiens) [compound 69],OSCAR,CRC,–,–
73: peptide found in APOB (gene looked up) (STDSASYY; listed as Homo sapiens) [compound 73],HCC,HCC,–,–
75: peptide found in ABCB11 (gene looked up) (FTDYELKAY; listed as Homo sapiens) [compound 75],HCC,HCC,–,–
84: peptide found in ABCB11 (gene looked up) (ESEMIKFASYY; listed as Homo sapiens) [compound 84],HCC,–,HCC,–
91: peptide found in SLC6A3 (gene looked up) (CLVLVIVLLY; listed as Homo sapiens) [compound 91],NSCLCadeno,–,"NSCLCadeno, NSCLCsquam",RCC
